{
  "source": "patent US11197885B2",
  "about": "“Collagen enhancing agent made from low acyl gellan gum, methods of making and methods of using the same” (The University of Toledo, priority 2015, dated 2021)",
  "system": "pCREB in mouse cortical neurons",
  "experiment": "nuclear pCREB in midi-GAGR-treated mouse cortical neurons pre-treated with signaling inhibitors",
  "type": "cell-based",
  "conditions": "inhibitor 6 h (SU5402 4 μM, staurosporine 3 nM, U0126 10 μM, LY294002 20 μM, KN-62 10 μM, PF-573228 1 μM), then 1 μM midi-GAGR 48 h",
  "protocol": "To analyze the effect of polysaccharides on neurite outgrowth, primary mouse cortical neurons were treated with vehicle (H2O) or 1 μM of dextran, alginate, or midi-GAGR, 0.01 μM of HA-GAGR, or 0.1 μM of LA-GAGR for 2 days prior to immunocytochemistry using anti-α-tubulin antibody and secondary Alexa488nm antibody. An etched grid coverslip containing 200 numbered boxes was used to select neurons objectively for image acquisition and analysis. A total of 24 boxes were randomly selected per treatment group. All the neurons having total neurite length longer than 4 times of the diameter of neuron cell body were chosen for image analysis. The total length of the neurites of each neuron was measured using Metamorph and used to calculate average total neurite length. […] The intensity of the staining of nuclear pCREB was measured using Metamorph and used to calculate average intensity. In addition, the phosphorylation of CREB in the cytosols of mouse cortical neurons treated with polysaccharides were detected by immunoblotting. […] The protein bands on blots recognized by anti-pCREB (Santa Cruz Biotechnologies) and anti-CREB antibodies were detected on Amersham Hyperfilm™ ECL films (GE Healthcare Life Science) using SuperSignal® West Pico Chemiluminescent Substrate (Thermo Scientific). […]",
  "data": [
    {"smiles": "CN[C@@H]1C[C@H]2O[C@@](C)([C@@H]1OC)n1c3ccccc3c3c4c(c5c6ccccc6n2c5c31)C(=O)NC4", "note": "[staurosporine]", "values": [
      {"measurement": "effect of inhibitor pre-treatment on average intensity of pCREB in midi-GAGR-treated neurons", "value": "significantly decreased"}
    ]}
  ]
}
